Experimental data: paper doi:10.1101/2025.07.28.667281
No constants are given. Whether binding was seen depends on the method and setting. Binding seen in cells or lysates may run through a third protein. These calls come from enrichment with a bait or labelling near it, and not all partners need be listed. Where a sequence is shown, tags or fusion partners need not be part of it.

Chains of the proteins cited; added tags and fusions are not shown. Residues count along the entry.
UniProt P09055, residues 21-798: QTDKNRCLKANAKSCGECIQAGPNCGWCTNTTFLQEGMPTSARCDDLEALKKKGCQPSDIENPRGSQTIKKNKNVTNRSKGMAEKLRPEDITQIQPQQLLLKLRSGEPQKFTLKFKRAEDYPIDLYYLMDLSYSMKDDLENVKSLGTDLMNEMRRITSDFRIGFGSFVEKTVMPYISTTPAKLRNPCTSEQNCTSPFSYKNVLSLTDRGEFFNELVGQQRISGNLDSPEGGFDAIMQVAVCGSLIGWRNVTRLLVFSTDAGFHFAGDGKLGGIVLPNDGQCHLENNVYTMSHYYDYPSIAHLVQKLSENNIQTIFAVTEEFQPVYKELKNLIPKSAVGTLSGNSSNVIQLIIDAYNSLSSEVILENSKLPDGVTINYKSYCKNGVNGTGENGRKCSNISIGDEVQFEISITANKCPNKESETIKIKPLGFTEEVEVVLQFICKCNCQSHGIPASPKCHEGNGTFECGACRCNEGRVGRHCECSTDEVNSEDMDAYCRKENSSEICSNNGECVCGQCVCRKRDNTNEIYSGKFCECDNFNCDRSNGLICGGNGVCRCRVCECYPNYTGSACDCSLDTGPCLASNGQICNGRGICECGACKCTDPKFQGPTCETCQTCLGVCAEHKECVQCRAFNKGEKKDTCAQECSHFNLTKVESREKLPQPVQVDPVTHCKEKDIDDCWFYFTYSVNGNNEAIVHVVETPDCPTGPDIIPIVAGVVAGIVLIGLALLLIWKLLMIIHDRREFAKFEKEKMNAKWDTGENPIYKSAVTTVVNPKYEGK
UniProt P11835, residues 24-771: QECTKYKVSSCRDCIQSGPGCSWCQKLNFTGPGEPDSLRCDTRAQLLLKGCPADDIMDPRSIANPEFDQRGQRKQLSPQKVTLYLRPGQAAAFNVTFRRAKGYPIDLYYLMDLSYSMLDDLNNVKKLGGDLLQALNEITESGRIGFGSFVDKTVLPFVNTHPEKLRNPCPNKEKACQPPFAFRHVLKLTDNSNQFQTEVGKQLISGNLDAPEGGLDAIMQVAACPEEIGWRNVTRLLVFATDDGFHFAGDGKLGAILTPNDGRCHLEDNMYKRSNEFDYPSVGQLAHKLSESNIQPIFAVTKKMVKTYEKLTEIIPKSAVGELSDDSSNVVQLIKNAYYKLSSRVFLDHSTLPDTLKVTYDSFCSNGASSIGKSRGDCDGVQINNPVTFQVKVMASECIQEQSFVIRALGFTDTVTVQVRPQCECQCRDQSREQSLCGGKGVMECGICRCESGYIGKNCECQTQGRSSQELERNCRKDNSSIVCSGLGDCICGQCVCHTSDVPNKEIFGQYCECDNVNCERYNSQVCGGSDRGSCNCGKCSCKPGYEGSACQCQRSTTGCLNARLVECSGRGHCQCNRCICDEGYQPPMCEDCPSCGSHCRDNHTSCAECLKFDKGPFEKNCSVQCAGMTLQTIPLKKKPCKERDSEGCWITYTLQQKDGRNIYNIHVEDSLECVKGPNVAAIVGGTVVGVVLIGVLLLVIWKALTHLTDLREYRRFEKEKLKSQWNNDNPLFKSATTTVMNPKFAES

T1: murine, V5-tagged EGFL7 (mEGFL7) (mouse) (UniProt Q9QXT5)
T1 sequence: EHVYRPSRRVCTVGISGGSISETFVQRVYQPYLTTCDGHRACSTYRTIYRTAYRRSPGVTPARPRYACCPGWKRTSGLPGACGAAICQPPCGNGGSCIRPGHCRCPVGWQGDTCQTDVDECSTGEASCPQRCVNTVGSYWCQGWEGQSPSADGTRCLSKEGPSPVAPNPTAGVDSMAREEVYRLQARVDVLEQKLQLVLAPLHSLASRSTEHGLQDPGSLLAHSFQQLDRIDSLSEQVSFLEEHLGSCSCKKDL

B1: integrin α4 (ITGA4) (receptor, UniProt Q00651 41-1039)
chain: YNLDPENALLYQGPSGTLFGYSVVLHSHGSKRWLIVGAPTASWLSNASVVNPGAIYRCGIRKNPNQTCEQLQSGSPSGEPCGKTCLEERDNQWLGVTLSRQPGENGSIVTCGHRWKNIFYMKSDNKLPTGICYVMPSDLRTELSKRMAPCYKDYTRKFGENFASCQAGISSFYTQDLIVMGAPGSSYWTGTVFVYNITTNQYKAFVDRQNQVKFGSYLGYSVGAGHFRSPHTTEVVGGAPQHEQIGKAYIFSIDENELNIVYEMKGKKLGSYFGASVCAVDLNADGFSDLLVGAPMQSTIREEGRVFVYINSGMGAVMVEMERVLVGSDKYAARFGESIANLGDIDNDGFEDIAIGAPQEDDLRGAVYIYNGRVDGISSTYSQRIEGQQISKSLRMFGQSISGQIDADNNGYVDVAVGAFQSDSAVLLRTRPVVIVEASLSHPESVNRTKFDCTENGLPSVCMHLTLCFSYKGKEVPGYIVLFYNVSLDVHRKAESPSRFYFFSNGTSDVITGSIRVSSSGEKCRTHQAFMRKDVRDILTPIHVEATYHLGHHVITKRNTEEFPPLQPILQQKKEKDVIRKMINFARFCAYENCSADLQVSAKVGFLKPYENKTYLAVGSMKTIMLNVSLFNAGDDAYETTLNVQLPTGLYFIKILDLEEKQINCEVTESSGIVKLACSLGYIYVDRLSRIDISFLLDVSSLSRAHEDLSISVHASCENEGELDQVRDNRVTLTIPLRYEVMLTVHGLVNPTSFVYGSSEENEPETCMAEKLNLTFHVINTGISMAPNVSVKIMVPNSFLPQDDKLFNVLDVQTTTGQCHFKHYGRECTFAQQKGIAGTLTDIVKFLSKTDKRLLYCMKADQHCLDFLCNFGKMESGKEASVHIQLEGRPSILEMDETSSLKFEIKATAFPEPHPKVIELNKDENVAHVFLEGLHHQRPKRHFTIIIITISLLLGLIVLLLISCVMWKAGFFKRQYKSILQEENRRDSWSYVNSKSNDD

molecular target: T1, murine, V5-tagged EGFL7 (mEGFL7) (mouse); assay: affinity purification with mass spectrometry

| binding | Molecule |
| --- | --- |
| binds | integrin αV (ITGAV) (receptor) |
| binds | integrin β1 (ITGB1) (from UniProt P09055 21-798) (receptor) |
| binds | integrin β2 (ITGB2, also known as CD18) (from UniProt P11835 24-771) (receptor) |
| binds | B1 |
